Our source for the binding values is PMC10049986.

What all share (assay): affinity purification with mass spectrometry; native and formaldehyde cross-linked IP-MS from floral buds of FLAG-TRB1, 2 and 3 lines with Col-0 as control; anti-FLAG M2 magnetic beads, 4 °C, 2 h; eluted with 3X FLAG peptides; results of the two formats are told together
The target of assay [1] is T1, pTRB:TRB-FLAG TRB2 (Telomere Repeat Binding factor 2 with 3xFLAG) (Arabidopsis thaliana), Q9FJW5.
T1 chain: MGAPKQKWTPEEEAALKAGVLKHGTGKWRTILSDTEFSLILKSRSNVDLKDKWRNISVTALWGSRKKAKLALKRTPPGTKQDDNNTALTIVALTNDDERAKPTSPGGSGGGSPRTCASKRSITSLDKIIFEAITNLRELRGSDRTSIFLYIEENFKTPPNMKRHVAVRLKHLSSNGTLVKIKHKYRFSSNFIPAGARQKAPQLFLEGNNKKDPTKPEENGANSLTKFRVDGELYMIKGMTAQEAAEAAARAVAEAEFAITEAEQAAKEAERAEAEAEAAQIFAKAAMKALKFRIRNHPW
The conditions noted are these: remark: other sources report otherwise.

Assay [2] deals with T2, pTRB:TRB-FLAG TRB1 (Telomere Repeat Binding factor 1 with 3xFLAG) (Arabidopsis thaliana), Q8VWK4.
T2 chain: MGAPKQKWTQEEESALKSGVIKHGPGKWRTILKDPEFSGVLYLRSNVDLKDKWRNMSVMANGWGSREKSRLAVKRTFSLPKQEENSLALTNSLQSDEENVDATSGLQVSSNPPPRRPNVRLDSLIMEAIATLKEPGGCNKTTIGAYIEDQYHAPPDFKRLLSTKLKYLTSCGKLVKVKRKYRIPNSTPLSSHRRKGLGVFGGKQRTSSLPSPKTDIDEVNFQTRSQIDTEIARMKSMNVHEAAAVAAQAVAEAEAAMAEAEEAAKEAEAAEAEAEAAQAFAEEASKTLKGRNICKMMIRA
The settings on record: remark: other sources report otherwise.

The target in assay [3] is T3, pTRB:TRB-FLAG TRB3 (Telomere Repeat Binding factor 3 with 3xFLAG) (Arabidopsis thaliana), Q9M2X3.
T3 chain: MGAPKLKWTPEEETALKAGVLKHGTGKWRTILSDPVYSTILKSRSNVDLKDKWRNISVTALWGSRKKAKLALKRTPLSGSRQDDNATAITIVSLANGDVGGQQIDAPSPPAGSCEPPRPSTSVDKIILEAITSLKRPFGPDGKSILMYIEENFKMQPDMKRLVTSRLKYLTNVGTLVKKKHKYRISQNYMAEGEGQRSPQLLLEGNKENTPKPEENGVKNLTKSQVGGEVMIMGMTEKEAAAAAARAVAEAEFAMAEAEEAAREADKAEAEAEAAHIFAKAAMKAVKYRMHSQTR
The conditions noted are these: remark: other sources report otherwise.

In assay [4] the target is T4, pTRB:TRB-FLAG TRB1 (Telomere Repeat Binding factor 1 with 3xFLAG) (Arabidopsis thaliana) (UniProt Q8VWK4).
T4 sequence: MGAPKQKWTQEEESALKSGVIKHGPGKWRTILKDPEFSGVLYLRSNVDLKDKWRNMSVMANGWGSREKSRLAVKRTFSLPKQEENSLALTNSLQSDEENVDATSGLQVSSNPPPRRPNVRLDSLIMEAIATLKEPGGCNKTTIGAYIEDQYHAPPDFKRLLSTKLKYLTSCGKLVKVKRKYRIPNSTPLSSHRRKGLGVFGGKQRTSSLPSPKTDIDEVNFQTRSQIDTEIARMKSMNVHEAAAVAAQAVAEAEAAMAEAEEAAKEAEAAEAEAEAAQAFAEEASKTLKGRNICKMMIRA

In assay [5] the target is T5, pTRB:TRB-FLAG TRB2 (Telomere Repeat Binding factor 2 with 3xFLAG) (Arabidopsis thaliana) (UniProt Q9FJW5).
T5 sequence: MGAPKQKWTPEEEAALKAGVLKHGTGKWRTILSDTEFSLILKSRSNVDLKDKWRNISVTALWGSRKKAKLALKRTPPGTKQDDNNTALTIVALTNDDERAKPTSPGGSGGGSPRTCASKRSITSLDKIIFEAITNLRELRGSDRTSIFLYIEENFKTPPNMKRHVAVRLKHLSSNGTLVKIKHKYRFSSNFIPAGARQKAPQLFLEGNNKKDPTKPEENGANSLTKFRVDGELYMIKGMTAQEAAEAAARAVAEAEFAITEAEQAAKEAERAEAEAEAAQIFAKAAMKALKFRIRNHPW

The target in assay [6] is T6, pTRB:TRB-FLAG TRB3 (Telomere Repeat Binding factor 3 with 3xFLAG) (Arabidopsis thaliana) (UniProt Q9M2X3).
T6 sequence: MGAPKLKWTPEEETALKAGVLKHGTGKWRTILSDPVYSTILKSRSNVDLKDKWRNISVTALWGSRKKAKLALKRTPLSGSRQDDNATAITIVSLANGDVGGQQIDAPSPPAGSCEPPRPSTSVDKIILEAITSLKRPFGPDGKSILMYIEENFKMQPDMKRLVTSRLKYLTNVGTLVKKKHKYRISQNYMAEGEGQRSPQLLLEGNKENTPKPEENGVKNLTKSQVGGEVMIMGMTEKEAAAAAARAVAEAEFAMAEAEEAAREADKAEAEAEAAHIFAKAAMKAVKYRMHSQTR

Results are given in words; binding and its absence hold for the method and conditions named. In cells and extracts the contact can be indirect. A yes stands for co-enrichment or nearness to the bait. Other partners may have been found. Where a sequence is shown, tags or fusion partners need not be part of it.

B1: JUMONJI14 (JMJ14), endogenous, Q8GUI6 1-954 (protein)
chain: MDQLASLAESVAMEEDSEKQSIKGESSLEPDSTPSSPKITARWNPSEACRPLVDDAPIFYPTNEDFDDPLGYIEKLRSKAESYGICRIVPPVAWRPPCPLKEKKIWENSKFPTRIQFIDLLQNREPIKKSTKTKKRKRRRISKIGYTRRKRDSGCDTASSGSSDSEGKFGFQTGPDFTLEEFQKYDEYFKECYFQSEDHPGSKASENKKFKPKVKDLEGEYWRIVEQATDEVEVYYGADLETKKFGSGFPKYKPGYPISEADQYSQCGWNLNNLSRLPGSVLAFESCDISGVIVPWLYVGMCFSTFCWHVEDHHLYSMNYLHTGDPKVWYGIPGNHAESFENVMKKRLPDLFEEQPDLLHQLVTQLSPRILKEEGVPVYRAVQRSGEFILTFPKAYHSGFNCGFNCAEAVNVAPVDWLVHGQNAVEGYSKQRRKSSLSHDKLLLGAAMEATYCLWELSLSKKKTPVIARWKRVCSEDGLLTKAVKKRVQMEEERLNHLQDGFSLRKMEGDFDNKRERECFLCFYDLHMSASSCKCSPNRFACLIHAKDLCSCESKDRYILIRHTLDELWALVRALEGDLDAIDLWASKCRDQYPSQHPRAREYAYLKSAPCIKSRGSSKVQQREQNNLQLVSERLQSDLTSNKEVQLKQDGDSDVNRHGHESERNHVHGITDKSAVTDVKLGVGGKFDEKKISVESQNPHSVSDVGCSELAKKVDGCLGGKDQNAATNRLSLSVELLSSGSLVVKKLWCSKQAIYPKGFKSRVKFLSVLDPTNLTNYISEVLDAGLLGPLFRVSVEDYPTENFSNVSAEKCWQMVTQRLKLEIIKKCDQPVSSLTSLQPLESINGLEMFGFLSPHVIKVVEALDPKHQLEEYWNQKAVKLFGAEPIKEGEKDDTEKGGASDPSLDRDTRLLRGLLKKATPEELVMMHGLLCGETRNTELKEELSTLVDKMEISP
As for B1, the binding entry in assay [1], in assay [2] and in assay [3] was “binds” each time.

B2: NAC050, endogenous (protein, UniProt Q9SQX9 1-447)
chain: MGRESLAVVSSPPSATAPSTAVSATSLAPGFRFHPTDEELVSYYLKRKVLGKPVRFDAIGEVDIYKHEPWDLAVFSKLKTRDQEWYFFSALDKKYGNGARMNRATNKGYWKATGKDREIRRDIQLLGMKKTLVFHSGRAPDGLRTNWVMHEYRLVEYETETNGSLLQDAYVLCRVFHKNNIGPPSGNRYAPFMEEEWADGGGALIPGIDVRVRVEALPQANGNNQMDQEMHSASKDLININELPRDATPMDIEPNQQNHHESAFKPQESNNHSGYEEDEDTLKREHAEEDERPPSLCILNKEAPLPLLQYKRRRQNESNNNSSRNTQDHCSSTITTVDNTTTLISSSAAAATNTAISALLEFSLMGISDKKENQQKEETSPPSPIASPEEKVNDLQKEVHQMSVERETFKLEMMSAEAMISILQSRIDALRQENEELKKKNASGQAS
Take B2: the binding result in assay [4] is listed as “binds”.

B3: NAC050, endogenous, Q9SQX9 1-447 (protein)
chain: MGRESLAVVSSPPSATAPSTAVSATSLAPGFRFHPTDEELVSYYLKRKVLGKPVRFDAIGEVDIYKHEPWDLAVFSKLKTRDQEWYFFSALDKKYGNGARMNRATNKGYWKATGKDREIRRDIQLLGMKKTLVFHSGRAPDGLRTNWVMHEYRLVEYETETNGSLLQDAYVLCRVFHKNNIGPPSGNRYAPFMEEEWADGGGALIPGIDVRVRVEALPQANGNNQMDQEMHSASKDLININELPRDATPMDIEPNQQNHHESAFKPQESNNHSGYEEDEDTLKREHAEEDERPPSLCILNKEAPLPLLQYKRRRQNESNNNSSRNTQDHCSSTITTVDNTTTLISSSAAAATNTAISALLEFSLMGISDKKENQQKEETSPPSPIASPEEKVNDLQKEVHQMSVERETFKLEMMSAEAMISILQSRIDALRQENEELKKKNASGQAS
As for B3, the binding result in assay [1] and in assay [3] was “binds” in each case.

B4: NAC052, endogenous, Q9SQY0 1-451 (protein)
chain: MGRESVAVVTAPPSATAPGTASVATSLAPGFRFHPTDEELVSYYLKRKVLGQPVRFDAIGEVDIYKHEPWDLAVFSRLKTRDQEWYFYSALDKKYGNGARMNRATNRGYWKATGKDREIRRDILLLGMKKTLVFHSGRAPDGLRTNWVMHEYRLVEYETEKNGNLVQDAYVLCRVFHKNNIGPPSGNRYAPFMEEEWADDEGALIPGIDVKLRLEPPPVANGNDQMDQEIQSASKSLININEPPRETAPLDIESDQQNHHENDLKPEEHNNNNNYDENEETLKREQMEEEERPPRPVCVLNKEAPLPLLQYKRRRQSESNNNSSRNTQDHCSSTTTTVDNTTTLISSSAAATNTAISALLEFSLMGISDKKEKPQQPLRPHKEPLPPQTPLASPEEKVNDLQKEIHQMSVERETFKLEMMSAEAMISILQSRIDALRQENEELKKNNANGQ
In the case of B4, the binding entry in assay [1], in assay [2] and in assay [3] was “binds” in each case.

B5: LIKE HETEROCHROMATIN PROTEIN1 (LHP1), endogenous, Q946J8 1-445 (protein)
chain: MKGASGAVKKKPQVLNEAGEAETAVETVGESRKISGDGGFGSDDGGGGGGGGSGESILREIGDDRPTEDGDEEEEEDEDEDDGGDEEDEEGEGEGGQEERPKLDEGFYEIEAIRRKRVRKGKVQYLIKWRGWPETANTWEPLENLQSIADVIDAFEGSLKPGKPGRKRKRKYAGPHSQMKKKQRLTSTSHDATEKSDSSTSLNNSSLPDIPDPLDLSGSSLLNRDVEAKNAYVSNQVEANSGSVGMARQVRLIDNEKEYDPTLNELRGPVNNSNGAGCSQGGGIGSEGDNVRPNGLLKVYPKELDKNSRFIGAKRRKSGSVKRFKQDGSTSNNHTAPTDQNLTPDLTTLDSFGRIARMGNEYPGVMENCNLSQKTKIEELDITKILKPMSFTASVSDNVQEVLVTFLALRSDGKEALVDNRFLKAHNPHLLIEFYEQHLKYNRTP
Regarding B5, the binding result in assay [2] is “binds”.

B6: LIKE HETEROCHROMATIN PROTEIN1 (LHP1), endogenous (protein, UniProt Q946J8 1-445)
chain: MKGASGAVKKKPQVLNEAGEAETAVETVGESRKISGDGGFGSDDGGGGGGGGSGESILREIGDDRPTEDGDEEEEEDEDEDDGGDEEDEEGEGEGGQEERPKLDEGFYEIEAIRRKRVRKGKVQYLIKWRGWPETANTWEPLENLQSIADVIDAFEGSLKPGKPGRKRKRKYAGPHSQMKKKQRLTSTSHDATEKSDSSTSLNNSSLPDIPDPLDLSGSSLLNRDVEAKNAYVSNQVEANSGSVGMARQVRLIDNEKEYDPTLNELRGPVNNSNGAGCSQGGGIGSEGDNVRPNGLLKVYPKELDKNSRFIGAKRRKSGSVKRFKQDGSTSNNHTAPTDQNLTPDLTTLDSFGRIARMGNEYPGVMENCNLSQKTKIEELDITKILKPMSFTASVSDNVQEVLVTFLALRSDGKEALVDNRFLKAHNPHLLIEFYEQHLKYNRTP
On to B6, for which the binding result in assay [5] and in assay [6] was “binds” in each case.

B7: PRC2 accessory protein ICU11, endogenous (protein, UniProt Q3ED68 1-397)
chain: MCNQTPLRSMALDSSGKQPEQQQQQQPRASSGNGEARLKLRRTPNEEHEPENYEDLPLDYSPSLFTSLERYLPEQLLNSTRIDKASFMRDLLLRYSPDTERVRVLRHKEYRDKIMSSYQRLHGEIYTLDPSSFFAPSFLGAFSRKSEPNFRSSMVESYPGIFTFEMFKPQFCEMLLAEVEHMEKWVYDSRSTIMRPNTMNNFGVVLDDFGFDSMLQKLVDDFISPIAQVLFPEVCGTSLDSHHGYIVEYGKDRDVDLGFHVDDSEVSLNVCLGKQFSGGELYFRGVRCDKHVNSDSTEKEVYDYSHVPGHAILHRGRHRHGARATTSGHRANLILWCRSSTFREMKNYQRDFSGWCGGCKLDKQRRQRDSINATKEILARKAAEKTLVELASKSCAE
For the molecule B7, the binding result in assay [5], in assay [6] and in assay [4] was “binds” in each case.
